The supplement of paper PMC12067093, “Discovery and optimisation of a covalent ligand for TRIM25 and its application to targeted protein ubiquitination” (Chemical Science, 2025)
This is one part of the list.

Chains of the proteins cited; added tags and fusions are not shown. Lines headed by an entry give the natural chain unless they say otherwise; changes in a name come on top.
UniProt Q8IYN6: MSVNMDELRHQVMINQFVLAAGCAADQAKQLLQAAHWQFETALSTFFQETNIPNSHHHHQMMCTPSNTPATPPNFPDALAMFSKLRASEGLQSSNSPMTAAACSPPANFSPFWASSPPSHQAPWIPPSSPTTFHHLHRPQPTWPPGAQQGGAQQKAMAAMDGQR
UniProt Q9NPG3, whole entry, looked up: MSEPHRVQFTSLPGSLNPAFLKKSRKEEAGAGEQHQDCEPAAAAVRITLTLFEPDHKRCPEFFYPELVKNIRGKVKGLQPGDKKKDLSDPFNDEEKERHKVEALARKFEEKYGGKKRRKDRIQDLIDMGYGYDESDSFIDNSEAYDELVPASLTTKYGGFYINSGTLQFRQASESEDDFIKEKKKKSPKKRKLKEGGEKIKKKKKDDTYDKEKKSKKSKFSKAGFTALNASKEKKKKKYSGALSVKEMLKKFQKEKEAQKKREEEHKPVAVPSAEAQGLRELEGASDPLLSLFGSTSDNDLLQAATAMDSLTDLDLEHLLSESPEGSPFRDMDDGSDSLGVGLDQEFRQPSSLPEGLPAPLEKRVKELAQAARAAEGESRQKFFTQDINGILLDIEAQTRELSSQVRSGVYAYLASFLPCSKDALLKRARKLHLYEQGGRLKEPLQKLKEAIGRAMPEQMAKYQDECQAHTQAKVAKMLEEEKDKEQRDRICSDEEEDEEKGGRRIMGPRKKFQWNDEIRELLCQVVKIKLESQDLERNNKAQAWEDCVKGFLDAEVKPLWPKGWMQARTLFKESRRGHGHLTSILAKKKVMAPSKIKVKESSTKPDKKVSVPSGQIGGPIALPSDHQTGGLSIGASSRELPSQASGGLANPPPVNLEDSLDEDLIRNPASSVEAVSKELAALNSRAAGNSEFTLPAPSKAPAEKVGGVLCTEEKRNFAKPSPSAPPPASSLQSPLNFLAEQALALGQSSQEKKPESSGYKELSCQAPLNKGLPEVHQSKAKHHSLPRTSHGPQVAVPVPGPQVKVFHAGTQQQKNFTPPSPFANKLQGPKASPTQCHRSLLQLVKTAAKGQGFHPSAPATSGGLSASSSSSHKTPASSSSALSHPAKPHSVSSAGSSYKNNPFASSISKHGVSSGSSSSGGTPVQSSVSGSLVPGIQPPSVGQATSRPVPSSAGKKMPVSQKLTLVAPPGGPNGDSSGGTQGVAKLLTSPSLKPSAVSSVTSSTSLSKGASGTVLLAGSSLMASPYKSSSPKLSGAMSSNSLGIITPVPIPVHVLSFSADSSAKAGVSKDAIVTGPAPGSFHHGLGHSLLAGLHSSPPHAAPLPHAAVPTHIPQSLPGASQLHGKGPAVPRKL
UniProt O15042: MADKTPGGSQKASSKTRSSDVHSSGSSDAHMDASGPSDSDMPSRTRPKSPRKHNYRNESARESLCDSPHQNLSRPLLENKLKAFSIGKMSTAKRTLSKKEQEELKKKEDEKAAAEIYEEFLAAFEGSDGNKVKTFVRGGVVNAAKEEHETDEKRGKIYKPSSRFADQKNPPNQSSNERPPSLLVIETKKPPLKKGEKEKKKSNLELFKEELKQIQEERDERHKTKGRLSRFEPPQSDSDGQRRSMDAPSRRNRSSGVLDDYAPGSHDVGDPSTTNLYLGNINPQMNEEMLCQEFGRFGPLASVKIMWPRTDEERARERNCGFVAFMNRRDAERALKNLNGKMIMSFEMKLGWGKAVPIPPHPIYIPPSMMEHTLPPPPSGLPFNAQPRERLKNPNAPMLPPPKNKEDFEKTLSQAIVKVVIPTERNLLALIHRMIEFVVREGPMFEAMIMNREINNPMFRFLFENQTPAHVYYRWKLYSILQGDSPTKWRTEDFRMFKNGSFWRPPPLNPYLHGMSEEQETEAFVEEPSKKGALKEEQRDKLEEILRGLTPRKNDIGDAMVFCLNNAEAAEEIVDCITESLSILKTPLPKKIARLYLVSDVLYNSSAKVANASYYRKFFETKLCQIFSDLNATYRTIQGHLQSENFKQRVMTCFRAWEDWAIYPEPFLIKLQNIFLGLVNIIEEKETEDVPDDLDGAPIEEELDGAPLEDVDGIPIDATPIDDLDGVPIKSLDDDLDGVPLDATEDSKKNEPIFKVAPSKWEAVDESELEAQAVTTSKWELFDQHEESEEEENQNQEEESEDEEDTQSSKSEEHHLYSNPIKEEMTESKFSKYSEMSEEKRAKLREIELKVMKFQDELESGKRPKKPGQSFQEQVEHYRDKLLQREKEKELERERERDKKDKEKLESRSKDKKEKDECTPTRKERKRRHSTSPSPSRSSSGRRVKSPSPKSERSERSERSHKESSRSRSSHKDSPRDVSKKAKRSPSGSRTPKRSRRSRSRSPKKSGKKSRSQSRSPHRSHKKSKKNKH
UniProt Q969M7: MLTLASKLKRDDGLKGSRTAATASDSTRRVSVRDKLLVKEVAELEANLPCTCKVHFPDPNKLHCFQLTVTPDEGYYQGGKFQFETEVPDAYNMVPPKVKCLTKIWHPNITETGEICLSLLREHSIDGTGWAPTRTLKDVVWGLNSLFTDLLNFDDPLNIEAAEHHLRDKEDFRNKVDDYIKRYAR
UniProt Q16763: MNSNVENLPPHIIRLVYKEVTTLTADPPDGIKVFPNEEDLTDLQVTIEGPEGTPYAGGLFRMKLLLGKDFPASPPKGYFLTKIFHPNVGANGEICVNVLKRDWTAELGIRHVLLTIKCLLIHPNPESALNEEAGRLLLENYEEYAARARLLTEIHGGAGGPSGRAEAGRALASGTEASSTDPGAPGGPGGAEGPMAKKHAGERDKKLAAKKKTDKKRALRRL
UniProt O95071: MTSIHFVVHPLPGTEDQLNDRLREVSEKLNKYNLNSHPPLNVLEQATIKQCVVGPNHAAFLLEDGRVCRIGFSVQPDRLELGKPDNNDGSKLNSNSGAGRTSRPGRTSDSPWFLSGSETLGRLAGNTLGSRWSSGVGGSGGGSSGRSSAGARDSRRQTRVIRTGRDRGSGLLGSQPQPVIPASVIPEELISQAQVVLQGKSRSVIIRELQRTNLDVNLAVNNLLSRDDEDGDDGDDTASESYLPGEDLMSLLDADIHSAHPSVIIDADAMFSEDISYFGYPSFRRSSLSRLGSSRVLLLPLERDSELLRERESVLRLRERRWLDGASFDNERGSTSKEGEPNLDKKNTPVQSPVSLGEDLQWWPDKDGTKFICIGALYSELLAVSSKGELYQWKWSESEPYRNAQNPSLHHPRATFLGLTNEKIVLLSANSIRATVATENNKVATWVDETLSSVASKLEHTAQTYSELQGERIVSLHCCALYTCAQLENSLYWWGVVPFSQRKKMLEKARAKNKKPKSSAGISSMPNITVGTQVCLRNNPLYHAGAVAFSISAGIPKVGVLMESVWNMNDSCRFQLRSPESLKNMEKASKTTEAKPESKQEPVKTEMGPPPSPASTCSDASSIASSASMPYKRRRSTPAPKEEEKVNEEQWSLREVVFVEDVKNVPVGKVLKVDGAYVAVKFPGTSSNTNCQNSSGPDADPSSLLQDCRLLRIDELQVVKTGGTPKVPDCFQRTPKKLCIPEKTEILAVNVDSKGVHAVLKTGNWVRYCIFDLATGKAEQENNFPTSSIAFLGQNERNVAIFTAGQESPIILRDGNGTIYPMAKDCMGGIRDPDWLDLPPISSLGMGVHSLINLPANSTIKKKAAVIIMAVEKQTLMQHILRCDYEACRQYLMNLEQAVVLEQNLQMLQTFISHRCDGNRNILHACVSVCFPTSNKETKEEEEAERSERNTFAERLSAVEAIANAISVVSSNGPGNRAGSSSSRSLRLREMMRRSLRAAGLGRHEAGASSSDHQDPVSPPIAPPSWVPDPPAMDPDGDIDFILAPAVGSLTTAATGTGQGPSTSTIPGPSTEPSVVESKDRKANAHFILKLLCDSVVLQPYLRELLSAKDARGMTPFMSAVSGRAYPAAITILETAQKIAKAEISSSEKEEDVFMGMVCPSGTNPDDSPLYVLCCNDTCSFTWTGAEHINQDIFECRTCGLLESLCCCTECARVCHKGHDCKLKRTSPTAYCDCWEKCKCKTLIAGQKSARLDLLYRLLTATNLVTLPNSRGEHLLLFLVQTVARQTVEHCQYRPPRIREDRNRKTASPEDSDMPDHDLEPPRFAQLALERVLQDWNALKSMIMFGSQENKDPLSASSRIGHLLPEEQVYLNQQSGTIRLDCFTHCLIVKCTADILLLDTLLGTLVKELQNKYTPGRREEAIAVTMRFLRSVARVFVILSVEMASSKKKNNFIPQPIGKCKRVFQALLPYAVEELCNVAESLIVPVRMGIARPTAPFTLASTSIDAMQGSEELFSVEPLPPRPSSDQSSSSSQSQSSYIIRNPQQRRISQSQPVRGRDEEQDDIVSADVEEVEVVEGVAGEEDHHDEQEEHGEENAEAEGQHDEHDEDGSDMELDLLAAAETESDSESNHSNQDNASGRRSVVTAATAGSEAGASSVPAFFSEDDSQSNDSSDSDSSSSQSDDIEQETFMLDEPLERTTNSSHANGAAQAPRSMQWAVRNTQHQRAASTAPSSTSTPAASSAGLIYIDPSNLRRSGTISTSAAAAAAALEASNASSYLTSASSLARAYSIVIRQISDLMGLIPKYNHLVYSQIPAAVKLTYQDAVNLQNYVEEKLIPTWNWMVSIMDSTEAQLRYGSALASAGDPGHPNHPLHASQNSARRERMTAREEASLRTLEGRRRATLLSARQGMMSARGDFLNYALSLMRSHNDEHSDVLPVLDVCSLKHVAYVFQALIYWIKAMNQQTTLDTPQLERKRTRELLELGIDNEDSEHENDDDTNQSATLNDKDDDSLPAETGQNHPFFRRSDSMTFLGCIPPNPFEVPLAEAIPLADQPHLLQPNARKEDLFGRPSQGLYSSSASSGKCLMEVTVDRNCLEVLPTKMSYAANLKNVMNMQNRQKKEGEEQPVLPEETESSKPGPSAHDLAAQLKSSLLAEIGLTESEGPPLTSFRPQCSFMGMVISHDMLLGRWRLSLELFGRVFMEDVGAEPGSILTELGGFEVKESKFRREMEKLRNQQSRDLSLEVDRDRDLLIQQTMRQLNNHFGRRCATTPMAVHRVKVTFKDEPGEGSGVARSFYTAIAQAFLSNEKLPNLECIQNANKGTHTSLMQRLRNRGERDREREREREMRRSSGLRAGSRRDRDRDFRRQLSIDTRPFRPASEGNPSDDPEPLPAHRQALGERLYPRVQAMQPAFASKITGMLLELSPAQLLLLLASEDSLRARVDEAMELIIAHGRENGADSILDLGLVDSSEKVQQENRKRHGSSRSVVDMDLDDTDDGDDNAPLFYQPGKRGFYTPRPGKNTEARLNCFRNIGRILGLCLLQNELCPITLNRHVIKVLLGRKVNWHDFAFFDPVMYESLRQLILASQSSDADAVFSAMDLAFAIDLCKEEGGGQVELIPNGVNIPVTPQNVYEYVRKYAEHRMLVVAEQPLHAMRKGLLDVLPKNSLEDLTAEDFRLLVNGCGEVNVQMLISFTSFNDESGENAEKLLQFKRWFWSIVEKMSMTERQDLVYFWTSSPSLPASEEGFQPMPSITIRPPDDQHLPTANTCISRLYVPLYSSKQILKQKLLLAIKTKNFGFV
UniProt Q9NPD8: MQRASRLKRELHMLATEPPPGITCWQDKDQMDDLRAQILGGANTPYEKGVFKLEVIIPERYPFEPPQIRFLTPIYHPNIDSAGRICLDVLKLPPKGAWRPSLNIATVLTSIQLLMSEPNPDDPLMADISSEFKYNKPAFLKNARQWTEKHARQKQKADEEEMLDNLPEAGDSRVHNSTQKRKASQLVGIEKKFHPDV

compound: Cc1cc(ccc1-c1ccccc1)C(=O)N1CCCN(CC1)C(=O)CCl [compound 10]; assay: probe-labelled cysteine peptide fold change vs DMSO (competition) (log2 fold change); higher = less target engagement (more negative = stronger competition); conditions: 50 µM; THP-1; incubation time: 4 h
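Further: competitive profiling in live THP-1 cells: cysteine peptides tagged with an iodoacetamide desthiobiotin (IA-DTB) probe, intensity after compound treatment relative to DMSO-treated cells.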

Row | Target | probe-labelled cysteine peptide fold change
1 | UBALD2_Q8IYN6_23_HQVMINQFVLAAGCAADQAK (UniProt Q8IYN6) | 0.229
2 | UBN1_Q9NPG3_38_EEAGAGEQHQDCEPAAAAVR (UniProt Q9NPG3) | 0.125
3 | U2SURP_O15042_65_ESLCDSPHQNLSR (UniProt O15042) | 0.0744
4 | UBE2R2_Q712K3_93_MWHPNIYENGDVCISILHPPVDDPQSGELPSER (UniProt Q712K3) | -0.00539
5 | UAP1L1_Q3KQV9_231_VAMAPDGNGGLYCALEDHK (UniProt Q3KQV9) | 0.22
6 | UBAP1_Q9NZ09_452_GFDPLLVEEALEMHQCSEEK (UniProt Q9NZ09) | -0.24
7 | UBASH3B_Q8TF42_70_SVQAACDWLFSHVGDPFLDDPLPR (UniProt Q8TF42) | -0.117
8 | UBE2F_Q969M7_64_LHCFQLTVTPDEGYYQGGK (UniProt Q969M7) | -0.0621
9 | UBE2S_Q16763_118_CLLIHPNPESALNEEAGR (UniProt Q16763) | 0.197
10 | UBR5_O95071_2546_ILGLCLLQNELCPITLNR (UniProt O95071) | 0.271
11 | UBAP2L_Q14157_68+75_NQDECVIALHDCNGDVNR (UniProt Q14157) | -0.158
12 | UBE2T_Q9NPD8_24_ELHMLATEPPPGITCWQDK (UniProt Q9NPD8) | -0.165
13 | UBR3_Q6ZT12_1289_KLPISEEEQIYPWDTCAAVHDVR (UniProt Q6ZT12) | -0.369

Looked up one by one from above (two):
Row | Target | probe-labelled cysteine peptide fold change
12 | UBE2T_Q9NPD8_24_ELHMLATEPPPGITCWQDK (UniProt Q9NPD8) | -0.165
3 | U2SURP_O15042_65_ESLCDSPHQNLSR (UniProt O15042) | 0.0744
